In paper PMC10624613 one finds binding data, which are given here for one substance.

The chains behind the UniProt entries cited, without tags or fusion partners. Where a name states a change or a piece, a line headed by the entry shows the natural chain unless it says otherwise.
UniProt O94952: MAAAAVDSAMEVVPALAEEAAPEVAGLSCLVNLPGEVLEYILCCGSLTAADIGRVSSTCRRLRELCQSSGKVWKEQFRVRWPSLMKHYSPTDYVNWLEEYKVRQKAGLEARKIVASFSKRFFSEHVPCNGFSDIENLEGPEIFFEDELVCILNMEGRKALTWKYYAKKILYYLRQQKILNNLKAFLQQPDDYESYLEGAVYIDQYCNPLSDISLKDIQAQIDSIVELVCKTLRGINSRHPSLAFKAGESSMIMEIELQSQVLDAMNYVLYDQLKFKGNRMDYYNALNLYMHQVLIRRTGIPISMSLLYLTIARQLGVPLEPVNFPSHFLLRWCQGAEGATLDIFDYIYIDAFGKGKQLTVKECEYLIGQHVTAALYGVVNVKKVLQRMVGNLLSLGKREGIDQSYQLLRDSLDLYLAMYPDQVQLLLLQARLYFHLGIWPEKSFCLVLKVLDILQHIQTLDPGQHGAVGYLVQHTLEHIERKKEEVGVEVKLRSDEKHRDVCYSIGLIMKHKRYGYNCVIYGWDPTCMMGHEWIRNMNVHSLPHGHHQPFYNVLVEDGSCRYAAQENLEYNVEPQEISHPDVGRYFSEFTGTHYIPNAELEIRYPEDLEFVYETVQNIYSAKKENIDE
UniProt P27986: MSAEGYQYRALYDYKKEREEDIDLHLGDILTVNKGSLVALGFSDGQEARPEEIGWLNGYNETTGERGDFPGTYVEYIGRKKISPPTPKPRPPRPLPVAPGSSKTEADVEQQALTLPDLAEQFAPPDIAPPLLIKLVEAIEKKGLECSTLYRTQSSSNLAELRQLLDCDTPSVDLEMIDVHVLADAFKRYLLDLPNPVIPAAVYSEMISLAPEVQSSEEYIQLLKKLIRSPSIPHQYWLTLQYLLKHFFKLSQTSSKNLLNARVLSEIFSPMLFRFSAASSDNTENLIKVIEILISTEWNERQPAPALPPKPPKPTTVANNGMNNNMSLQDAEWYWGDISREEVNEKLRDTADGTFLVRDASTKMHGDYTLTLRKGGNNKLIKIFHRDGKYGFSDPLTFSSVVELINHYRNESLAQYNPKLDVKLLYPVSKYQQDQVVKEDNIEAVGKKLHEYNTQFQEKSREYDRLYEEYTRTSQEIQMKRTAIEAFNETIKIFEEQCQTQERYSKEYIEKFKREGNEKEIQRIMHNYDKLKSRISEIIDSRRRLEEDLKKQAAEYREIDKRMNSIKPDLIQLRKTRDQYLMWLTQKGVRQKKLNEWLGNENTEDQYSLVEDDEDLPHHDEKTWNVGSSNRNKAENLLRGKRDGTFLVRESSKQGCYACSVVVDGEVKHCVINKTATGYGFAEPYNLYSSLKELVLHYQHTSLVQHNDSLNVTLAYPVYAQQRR

Results are given in words; binding and its absence hold for the method and conditions named. Binding seen in cells or lysates may run through a third protein. Binding calls can cover weak binding; strength is not graded here.

The experiment addresses HA-tagged FBOX domain deleted FBXO21 (UniProt O94952). As to the kind of experiment: co-IP; HEK293T cells transiently transfected with GFP-tagged p85α and/or HA-tagged FBXO21/ΔFBXO21; immunoprecipitation of GFP or HA, western blot. (In western blotting, separated proteins are transferred to a membrane and probed.)

On to “GFP-tagged p85α (from UniProt P27986 1-724)”, for which the binding result was “binds”.
